Binding data for one substance are collected here from publication PMC4099368.

Protein sequences, listed by entry. Tags and fused reporters are not part of them. Residues count along the entry.
UniProt P43694, residues 200-254: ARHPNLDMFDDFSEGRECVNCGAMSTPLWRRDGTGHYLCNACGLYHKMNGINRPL

Numbering of substitutions follows the chain as printed. Results are given in words; binding and its absence hold for the method and conditions named. Binding seen in cells or lysates may run through a third protein. Some results given as binding are weak or reduced against the parent protein; the word gives no strength. Where a sequence is shown, tags or fusion partners need not be part of it.

In assay [1] the target is T1, GST-ZFPM2/FOG2 p.T843M (human) (UniProt Q8WW38).
T1 sequence: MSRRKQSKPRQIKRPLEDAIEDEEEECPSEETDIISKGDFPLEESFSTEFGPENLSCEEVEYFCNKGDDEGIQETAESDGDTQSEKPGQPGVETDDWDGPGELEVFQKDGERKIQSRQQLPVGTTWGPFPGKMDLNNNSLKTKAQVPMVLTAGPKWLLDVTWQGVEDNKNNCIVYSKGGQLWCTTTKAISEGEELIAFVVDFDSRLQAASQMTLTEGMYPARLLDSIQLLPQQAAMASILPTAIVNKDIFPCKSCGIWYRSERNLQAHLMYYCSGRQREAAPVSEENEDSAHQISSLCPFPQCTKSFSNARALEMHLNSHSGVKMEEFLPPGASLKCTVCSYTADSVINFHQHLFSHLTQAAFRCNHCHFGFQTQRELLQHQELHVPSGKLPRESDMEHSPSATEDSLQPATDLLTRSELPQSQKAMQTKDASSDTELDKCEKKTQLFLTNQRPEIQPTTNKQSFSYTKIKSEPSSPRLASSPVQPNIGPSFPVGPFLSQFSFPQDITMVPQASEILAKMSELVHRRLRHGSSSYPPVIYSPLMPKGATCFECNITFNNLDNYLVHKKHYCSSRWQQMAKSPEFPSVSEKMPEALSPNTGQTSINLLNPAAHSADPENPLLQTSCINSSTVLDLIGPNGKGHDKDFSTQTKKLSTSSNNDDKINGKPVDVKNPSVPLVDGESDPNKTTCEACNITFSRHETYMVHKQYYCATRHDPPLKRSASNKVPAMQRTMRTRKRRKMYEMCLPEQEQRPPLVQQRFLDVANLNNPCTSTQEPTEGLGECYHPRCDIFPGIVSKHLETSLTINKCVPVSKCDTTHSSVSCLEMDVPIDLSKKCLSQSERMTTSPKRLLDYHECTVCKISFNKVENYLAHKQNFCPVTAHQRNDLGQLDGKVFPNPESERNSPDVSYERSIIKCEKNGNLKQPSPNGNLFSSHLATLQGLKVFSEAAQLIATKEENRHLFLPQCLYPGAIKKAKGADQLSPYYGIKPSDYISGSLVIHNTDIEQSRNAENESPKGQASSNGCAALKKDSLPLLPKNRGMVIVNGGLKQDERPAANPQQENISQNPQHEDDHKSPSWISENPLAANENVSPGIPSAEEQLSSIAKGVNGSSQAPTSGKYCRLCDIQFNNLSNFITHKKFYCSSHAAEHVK
In words: pull-down; GST-ZFPM2/FOG2 (wild type or mutant) bound to 200 µl glutathione resin (Pierce GST Protein Interaction Pull-Down kit), incubated with GATA4 fragment at 4°C; washed with 25 mM Tris-HCl pH 7.2, 150 mM NaCl; eluate on SDS-PAGE, Coomassie staining.

Assay [2] concerns the target T2, GST-ZFPM2/FOG2 p.S402R (human) (UniProt Q8WW38).
T2 sequence: T1 sequence with S402R, M843T
The description is as above.

Regarding “N-terminal zinc-finger sequence of GATA4 (residues 200-254) (from UniProt P43694 200-254) (domain or fragment)”, the results for the binding result in assay [1] and in assay [2] were “binds” and “no binding”, respectively.
